Binding data for 1 substance are collected here from patent US20120315284A1.

Protein sequences, listed by entry. Tags and fused reporters are not part of them. Lines headed by an entry give the natural chain unless they say otherwise; changes in a name come on top.
UniProt O14733: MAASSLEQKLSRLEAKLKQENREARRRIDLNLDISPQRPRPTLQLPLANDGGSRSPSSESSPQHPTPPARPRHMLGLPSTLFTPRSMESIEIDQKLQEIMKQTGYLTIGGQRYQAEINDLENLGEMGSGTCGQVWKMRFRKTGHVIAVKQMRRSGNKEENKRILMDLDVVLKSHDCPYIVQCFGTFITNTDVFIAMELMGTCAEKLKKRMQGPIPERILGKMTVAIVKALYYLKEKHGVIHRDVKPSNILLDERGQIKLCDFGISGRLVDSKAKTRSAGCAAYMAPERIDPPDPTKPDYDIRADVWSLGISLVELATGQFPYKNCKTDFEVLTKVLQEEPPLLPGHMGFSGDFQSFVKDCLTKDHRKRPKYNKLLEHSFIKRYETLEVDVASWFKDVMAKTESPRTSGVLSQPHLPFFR

These are yes or no findings as the source states them, for the method shown. In cells and extracts the contact can be indirect. Some entries that bind do so weakly or less than the wild type.

The target in the test is T1, TIP41 (full length TIP41 protein expressed from the pHA vector in HEK293T cells) (human) (UniProt O75663).
T1 sequence: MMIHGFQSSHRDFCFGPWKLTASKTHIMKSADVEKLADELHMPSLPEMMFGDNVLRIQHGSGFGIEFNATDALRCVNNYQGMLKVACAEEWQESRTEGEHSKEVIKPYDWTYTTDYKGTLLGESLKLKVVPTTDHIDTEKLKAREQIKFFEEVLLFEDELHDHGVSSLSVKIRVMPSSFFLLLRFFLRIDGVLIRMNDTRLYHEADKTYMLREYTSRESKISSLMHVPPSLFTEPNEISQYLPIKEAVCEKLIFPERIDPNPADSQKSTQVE
Nature of the test: GST pull-down from HEK293T lysate, Western blot.

On to “MKK7 (full length MKK7 expressed from the pGST vector in HEK293T cells) (from UniProt O14733 1-419) (enzyme)”, for which the binding result was “binds”.
